In US20130225508A1, “PEPTIDE CAPABLE OF BINDING TO IMMUNOGLOBULIN” (priority 2010, published 2013):
Part of at least one peptide drawing is inferred or uncertain, most often the ends. Non-standard residues stand in square brackets, D forms with d. Residues, ends and D or L forms follow the SMILES beside them.

Tested on: IL-1β in plasma
Assay: IL-1β in plasma of adjuvant arthritis rats (ELISA)
Assay type: in vivo, rat
Conditions: day 21 post-adjuvant
Description: TNF-α and IL-1β in plasma were measured in a double-point method using the TNF-α ELISA kit (Lbis® TNF-α-rat) and the IL-1β ELISA kit (Quantikine® Rat IL-1β/IL-1F2).
On day 21 post-adjuvant, the animals were subjected to autopsy, and plasma was prepared to measure IL-1β and TIN-α concentrations in plasma. In all the groups for which measurements were made, the concentration of TNF-α was below the detection limit (8 pg/mL).

For CC(C)C[C@@H](NC(=O)CNC(=O)[C@H]1CCCN1)C(=O)N[C@H](CCC(=O)O)C(=O)N[C@H](CCCCN)C(=O)N[C@H](Cc1ccccc1)C(=O)O [Test substance VII-2, dPGdLdEdKdF] (H-[dP]G[dL][dE][dK][dF]-OH; N-terminus and C-terminus assumed), the “Concentrations of IL-1β in plasma” value (10 mg/kg intraperitoneal from day 10) was 10.5 ± 4.6 pg/mL and the “Concentrations of IL-1β in plasma” value (100 mg/kg intraperitoneal from day 10) was 13.9 ± 3.7 pg/mL.
